US10239937
These are yes or no findings as the source states them, for the method shown. Some entries that bind do so weakly or less than the wild type.

Amino acid sequences for entries named in this document (tags omitted). Residues count along the entry.
UniProt P01024, residues 1002-1303: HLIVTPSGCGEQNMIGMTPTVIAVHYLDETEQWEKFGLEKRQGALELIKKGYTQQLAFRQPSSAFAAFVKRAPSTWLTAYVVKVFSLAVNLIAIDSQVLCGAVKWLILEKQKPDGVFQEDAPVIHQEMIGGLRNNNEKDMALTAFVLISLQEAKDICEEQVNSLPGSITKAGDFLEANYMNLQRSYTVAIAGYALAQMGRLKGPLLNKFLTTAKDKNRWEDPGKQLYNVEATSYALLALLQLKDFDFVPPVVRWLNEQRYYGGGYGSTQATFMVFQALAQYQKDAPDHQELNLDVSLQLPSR

Key:
[1] = target: C3 fragments (iC3b, C3dg and C3d) of human complement component C3, deposited on cells or tissue (human) (UniProt P01024); assay: C3frag+ PNH RBCs from patients on eculizumab, in vitro hemolysis assay (modified Ham test)
[2] = target: C3 fragments (iC3b, C3dg and C3d) of human complement component C3, deposited on cells or tissue (human) (UniProt P01024); assay: immunostaining of asthmatic human lung tissue (FIG. 24)
[3] = target: C3 fragments (iC3b, C3dg and C3d) of human complement component C3, deposited on cells or tissue (human) (UniProt P01024); assay: immunostaining of asthmatic human lung tissue
[4] = target: C3 fragments (iC3b, C3dg and C3d) of human complement component C3, deposited on cells or tissue (human) (UniProt P01024); assay: flow cytometry with an anti-fH mAb on PNH RBCs incubated with TT30 in acidified normal serum

Measured: binding

B1: TT30 (protein)
chain: ISCGSPPPILNGRISYYSTPIAVGTVIRYSCSGTFRLIGEKSLLCITKDKVDGTWDKPAPKCEYFNKYSSCPEPIVPGGYKIRGSTPYRHGDSVTFACKTNFSMNGNKSVWCQANNMWGPTRLPTCVSVFPLECPALPMIHNGHHTSENVGSIAPGLSVTYSCESGYLLVGEKIINCLSSGKWSAVPPTCEEARCKSLGRFPNGKVKEPPILRVGVTANFFCDEGYRLQGPPSSRCVIAGQGVAWTKMPVCEEIFEDCNELPPRRNTEILTGSWSDQTYPEGTQAIYKCRPGYRSLGNVIMVCRKGEWVALNPLRKCQKRPCGHPGDTPFGTFTLTGGNVFEYGVKAVYTCNEGYQLLGEINYRECDTDGWTNDIPICEVVKCLPVTAPENGKIVSSAMEPDREYHFGQAVRFVCNSGYKIEGDEEMHCSDDGFWSKEKPKCVEISCKSPDVINGSPISQKIIYKENERFQYKCNMGYEYSERGDAVCTESGWRPLPSCEEKSCDNPYIPNGDYSPLRIKHRTGDEITYQCRNGFYPATRGNTAKCTSTGWIPAPRCTLK
binds: [1] | [2] | [3] | [4]
